{"source": "PubChem BioAssay AID504764, Drosophila RNAi Screening Center – 2011", "aim": "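Knock-downs that raise or lower a Notch target reporter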 (primary screen)", "cell system": "Drosophila Kc167 cells", "reagent": "long dsRNA against Drosophila genes", "timing": "about 5 days (4 days dsRNA, then 24 h after transfection)", "treatment": "transfection of constitutively active membrane-tethered Notch lacking the extracellular domain, read 24 h later", "detection": "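Firefly luciferase from an E(spl)m3 reporter with active Notch, plus control-promoter and uninduced reporter wells for normalisation; unnormalised counts, duplicate wells a and b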", "reading the numbers": "induced reporter light, run 1, well a and induced reporter light, run 1, well b: higher = more light from the Notch target reporter with active Notch; control promoter light, run 1, well a and control promoter light, run 1, well b: higher = more light from the viral control promoter (cell number, transfection, viability); uninduced reporter light, run 1, well a: higher = more light from the Notch target reporter without active Notch", "hit rule": "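Hit if the duplicate-averaged log2 ratio of induced to control-promoter light gives a plate-wise z beyond ±2, or induced to uninduced beyond ±1.8; weak-control or discordant-duplicate wells dropped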", "meaning of the calls": "active = modifier hit (raised or lowered Notch signal); inactive = not a hit", "note": "The deposit covers about 22,000 reagents; this is a random part of those that have a named target and a result. Of all reagents, 403 (1.9%) got an active call. 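Unnormalised raw counts per well; ratio z-scores behind the hit calls and whether each hit raises or lowers signal are not deposited.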 Not given: the amount of reagent."}
{"target gene": "CG7573", "amplicon": "DRSC10884", "induced reporter light, run 1, well a": 1.04e5, "induced reporter light, run 1, well b": 1.04e5, "control promoter light, run 1, well a": 1.98e5, "control promoter light, run 1, well b": 1.17e5, "uninduced reporter light, run 1, well a": 6470, "outcome": "inactive"}
{"target gene": "thoc7", "amplicon": "DRSC08512", "induced reporter light, run 1, well a": 73855, "induced reporter light, run 1, well b": 79035, "control promoter light, run 1, well a": 1.05e5, "control promoter light, run 1, well b": 1.08e5, "uninduced reporter light, run 1, well a": 5205, "outcome": "inactive"}
{"target gene": "CG7329", "amplicon": "DRSC03046", "induced reporter light, run 1, well a": 1.48e5, "induced reporter light, run 1, well b": 1.71e5, "control promoter light, run 1, well a": 71520, "control promoter light, run 1, well b": 1.18e5, "uninduced reporter light, run 1, well a": 21895, "outcome": "inactive"}
{"target gene": "CG1077", "amplicon": "DRSC12146", "induced reporter light, run 1, well a": 97250, "induced reporter light, run 1, well b": 1.15e5, "control promoter light, run 1, well a": 1.01e5, "control promoter light, run 1, well b": 92220, "uninduced reporter light, run 1, well a": 7785, "outcome": "inactive"}
{"target gene": "pita", "amplicon": "DRSC04006", "induced reporter light, run 1, well a": 1.56e5, "induced reporter light, run 1, well b": 1.91e5, "control promoter light, run 1, well a": 2.79e5, "control promoter light, run 1, well b": 3.24e5, "uninduced reporter light, run 1, well a": 12500, "outcome": "inactive"}
{"target gene": "pita", "amplicon": "DRSC04435", "induced reporter light, run 1, well a": 2.40e5, "induced reporter light, run 1, well b": 2.13e5, "control promoter light, run 1, well a": 1.83e5, "control promoter light, run 1, well b": 1.81e5, "uninduced reporter light, run 1, well a": 15540, "outcome": "inactive"}
{"target gene": "CG6106", "amplicon": "DRSC19971", "induced reporter light, run 1, well a": 89215, "induced reporter light, run 1, well b": 91060, "control promoter light, run 1, well a": 86505, "control promoter light, run 1, well b": 77000, "uninduced reporter light, run 1, well a": 12185, "outcome": "inactive"}

2 entries already listed, sorted by “control promoter light, run 1, well a”, ascending:
{"target gene": "thoc7", "amplicon": "DRSC08512", "induced reporter light, run 1, well a": 73855, "induced reporter light, run 1, well b": 79035, "control promoter light, run 1, well a": 1.05e5, "control promoter light, run 1, well b": 1.08e5, "uninduced reporter light, run 1, well a": 5205, "outcome": "inactive"}
{"target gene": "CG7573", "amplicon": "DRSC10884", "induced reporter light, run 1, well a": 1.04e5, "induced reporter light, run 1, well b": 1.04e5, "control promoter light, run 1, well a": 1.98e5, "control promoter light, run 1, well b": 1.17e5, "uninduced reporter light, run 1, well a": 6470, "outcome": "inactive"}

Continued.
{"target gene": "CtsK1", "amplicon": "DRSC08742", "induced reporter light, run 1, well a": 2.05e5, "induced reporter light, run 1, well b": 2.22e5, "control promoter light, run 1, well a": 3.29e5, "control promoter light, run 1, well b": 2.64e5, "uninduced reporter light, run 1, well a": 7690, "outcome": "inactive"}
{"target gene": "Ada2a", "amplicon": "DRSC16206", "induced reporter light, run 1, well a": 2.54e5, "induced reporter light, run 1, well b": 2.29e5, "control promoter light, run 1, well a": 2.59e5, "control promoter light, run 1, well b": 2.92e5, "uninduced reporter light, run 1, well a": 20730, "outcome": "inactive"}
{"target gene": "Osi2", "amplicon": "DRSC12174", "induced reporter light, run 1, well a": 70645, "induced reporter light, run 1, well b": 63010, "control promoter light, run 1, well a": 70470, "control promoter light, run 1, well b": 75175, "uninduced reporter light, run 1, well a": 4800, "outcome": "inactive"}
{"target gene": "CG34324", "amplicon": "DRSC19502", "induced reporter light, run 1, well a": 1.67e5, "induced reporter light, run 1, well b": 1.45e5, "control promoter light, run 1, well a": 3.04e5, "control promoter light, run 1, well b": 1.85e5, "uninduced reporter light, run 1, well a": 9565, "outcome": "inactive"}
{"target gene": "Srp19", "amplicon": "DRSC11288", "induced reporter light, run 1, well a": 1.72e5, "induced reporter light, run 1, well b": 1.34e5, "control promoter light, run 1, well a": 1.81e5, "control promoter light, run 1, well b": 1.39e5, "uninduced reporter light, run 1, well a": 6915, "outcome": "inactive"}
{"target gene": "Nepl19", "amplicon": "DRSC14875", "induced reporter light, run 1, well a": 1.84e5, "induced reporter light, run 1, well b": 1.56e5, "control promoter light, run 1, well a": 2.70e5, "control promoter light, run 1, well b": 2.80e5, "uninduced reporter light, run 1, well a": 13280, "outcome": "inactive"}
{"target gene": "Osi24", "amplicon": "DRSC12275", "induced reporter light, run 1, well a": 76650, "induced reporter light, run 1, well b": 69535, "control promoter light, run 1, well a": 66925, "control promoter light, run 1, well b": 53565, "uninduced reporter light, run 1, well a": 7565, "outcome": "inactive"}
{"target gene": "Zip102B", "amplicon": "DRSC17155", "induced reporter light, run 1, well a": 1.03e5, "induced reporter light, run 1, well b": 1.08e5, "control promoter light, run 1, well a": 1.89e5, "control promoter light, run 1, well b": 1.90e5, "uninduced reporter light, run 1, well a": 7465, "outcome": "inactive"}
{"target gene": "ND6 (retired record)", "amplicon": "DRSC21271", "induced reporter light, run 1, well a": 1.11e5, "induced reporter light, run 1, well b": 88820, "control promoter light, run 1, well a": 92490, "control promoter light, run 1, well b": 1.11e5, "uninduced reporter light, run 1, well a": 11255, "outcome": "inactive"}
{"target gene": "CG4546", "amplicon": "DRSC15593", "induced reporter light, run 1, well a": 2.01e5, "induced reporter light, run 1, well b": 1.92e5, "control promoter light, run 1, well a": 1.94e5, "control promoter light, run 1, well b": 2.14e5, "uninduced reporter light, run 1, well a": 17440, "outcome": "inactive"}
{"target gene": "Tbh", "amplicon": "DRSC18723", "induced reporter light, run 1, well a": 1.44e5, "induced reporter light, run 1, well b": 1.48e5, "control promoter light, run 1, well a": 2.45e5, "control promoter light, run 1, well b": 2.69e5, "uninduced reporter light, run 1, well a": 10180, "outcome": "inactive"}
